For 61 compounds, cell number change and AC50 results are on record in PubChem BioAssay AID2685 (National Center for Advancing Translational Sciences (NCATS), 2010).

SMILES strings stand for the structures. Some of the results follow. Further columns of the screen follow, without active or inactive calls. Most of these compounds were active or inconclusive in the main read-out, so they are no random draw. Potencies come from curve fits of mixed quality, noted in brackets.

This experiment can be described thus: qHTS Assay for Lipid Storage Modulators in Drosophila S3 Cells.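 For cell number change: cells counted by Cell Tracker Red CMTPX staining in the red channel.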 The conditions noted are these: BODIPY lipid droplet fluorescence, 18-24 h; for cell number change: measured here: cell count max response, cells fed with added oleic acid. The method in brief:
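Drosophila S3 cells loaded with oleic acid (400 uM, as added) and compounds at several concentrations; lipid droplets imaged by 488-nm laser-scanning cytometry, 500–530 nm intensity and object ratio to cell channel. Percent activity normalized to 20 uM Triacsin C.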

Where [1] appears, read: measured here: lipid fluorescence (Fed channel) AC50, cells fed with added oleic acid.
Where [2] appears, read: measured here: cell number channel AC50, cells fed with added oleic acid.

Consider `COc1cccc(CN(C(=O)c2ccccc2Br)C2CCS(=O)(=O)C2)c1` (configuration not stated), for which the cell number change was -4.13%. In addition, the AC50 under setting [1] was 29.1 µM [falling, single point].

`COC(=O)C1=C(C)NC2=C(C(=O)CC(C)(C)C2)C1c1cccc(C)n1` (configuration not stated): the cell number change was 4.14%.

Consider `O=C(CCCCCNC(=O)c1ccccc1)N/N=C/c1ccc(F)cc1`, for which the AC50 under setting [2] is 2.31 µM [rising, single point].

Consider `O=C(Cn1ncc2c([nH]c3ccccc32)c1=O)Nc1ccc(F)cc1F`, for which the cell number change turned out to be 29.3%. The AC50 under setting [1] is 0.58 µM [falling, single point].

Turning to `Cc1ccc(CC(=O)Nc2ccccc2-c2ccccc2)cc1C`, the cell number change came to 4.6%. In addition, under setting [1], the AC50 is 2.91 µM [rising, partial curve].

Consider `COc1ccc(N/C=C/C(=O)c2ccc(Cl)cc2)cc1`, for which the cell number change was -2.33%. For the same compound, the AC50 under setting [1] was 29.1 µM [falling, single point].

In the case of `CCCc1cc(=O)n2[nH]c(C)c(-c3ccc(Cl)cc3)c2n1`, the cell number change is -4.91%.

For the compound `Cc1ccc(NC(=O)Cn2nc(C)c3ccccc3c2=O)c(C)c1`, the AC50 under setting [2] was 0.164 µM [rising, partial curve, poor fit] and the AC50 under setting [1] was 0.00411 µM [rising, full curve, poor fit].

For the compound `O=C(COC(=O)[C@@H]1CC(O)CN1S(=O)(=O)c1ccc2c(c1)OCCO2)Nc1ccccc1F` (some centres not stated), the cell number change was -14.2%. For the same compound, the AC50 under setting [2] was 0.00461 µM [falling, full curve, poor fit]. In addition, the AC50 under setting [1] was 0.0092 µM [falling, full curve, poor fit].

In the case of `O=C(COc1cccc2cccnc12)NCC(F)(F)F`, the cell number change is -0.682%.

For `CCc1noc(C)c1C(=O)Nc1nc(-c2cc(C)ccc2C)c(C)s1`, the cell number change was -22.2%.

Turning to `Cc1cc(NC(=O)COn2nnc3ccc(Cl)cc32)no1`, the cell number change came to 28.4%.

Turning to `Cc1ccccc1OCc1nnc(SCC(=O)O)n1-c1cccc(Cl)c1`, the cell number change was 7.61%. Also, the AC50 under setting [1] is 29.1 µM [rising, single point].

Consider `COc1ccc(Cc2nc3ccc(C(=O)N4CCC(N(C)C)C4)cc3o2)cc1` (configuration not stated), for which the cell number change amounted to 14.4%.

On to `NS(=O)(=O)c1ccc(CNC(=O)CCSCCC(=O)NCc2ccc(S(N)(=O)=O)cc2)cc1`, for which the cell number change worked out at 20.3%. Besides, the AC50 under setting [1] was 13 µM [rising, partial curve, poor fit].

Turning to `Cc1ccc(NS(=O)(=O)c2ccc3c(c2)OCCCO3)cc1S(=O)(=O)N1CCOCC1`, the cell number change came to 15.4%. For the same compound, under setting [1], the AC50 was 0.82 µM [falling, full curve, poor fit].

On to `COC(=O)N/N=C/c1ccccc1OCc1ccccc1`, for which the cell number change is -83.3%. Also, the AC50 under setting [2] was 4.11 µM [falling, full curve].

With `Cc1nc2ccc(C(=O)OCc3nnc(-c4ccc(Br)cc4)o3)cc2nc1C`, the cell number change was 11.9%.

Consider `O=C(COc1ccc2ccccc2c1)NC1CC1`, for which, under setting [1], the AC50 was 6.51 µM [rising, single point].

As to `Nc1c(N(Cc2ccccc2)C(=O)COc2ccc(F)cc2)c(=O)[nH]c(=O)n1Cc1ccccc1`, the AC50 under setting [1] is 0.58 µM [rising, single point].

Turning to `CCN1CCN(c2ccc(S(=O)(=O)N3CCCCC3)cc2NC(=O)c2cccc(C(F)(F)F)c2)CC1`, the cell number change turned out to be 5.66%. Further, under setting [1], the AC50 was 18.4 µM [rising, single point].

`COc1ccc(-c2noc(N3CCC(C(=O)NCCCN4CCC(C)CC4)CC3)n2)cc1`: the cell number change came to 2.31%. Moreover, under setting [1], the AC50 was 25.9 µM [rising, single point].

As for `CCn1ncc(CNC(=O)C2(C)CC2(Br)Br)c1C` (configuration not stated), the cell number change is -2.49%. Besides, the AC50 under setting [1] was 0.0326 µM [falling, full curve, poor fit].

`Cc1nc2ccccc2c(=O)n1NC(=O)c1ccc(F)cc1Cl`: the cell number change was -2.3%.

With `COC(=O)[C@@H]1Cc2c([nH]c3ccccc23)C(C)(C)N1C(=O)CCl`, the cell number change was -19.9%. Under setting [1], the AC50 was 0.0146 µM [falling, single point].

For the compound `Cc1nnc(NC(=O)c2ccc3c(c2)C(=O)N(CC2CCCO2)C3=O)s1` (configuration not stated), the cell number change amounted to 9.55%. Also, the AC50 under setting [2] is 0.164 µM [falling, partial curve]. Further, under setting [1], the AC50 is 1.16 µM [falling, single point].

For `COc1ccc(NC(=O)CN2C(=O)c3ccccc3S2(=O)=O)cc1OC`, the cell number change was 48.4%. Also, the AC50 under setting [2] was 29.1 µM [rising, single point].

As for `Cc1ccc(C)c(S(=O)(=O)/N=C2\C=C(NS(=O)(=O)c3ccccc3)C(=O)c3ccccc32)c1`, the cell number change is -17.9%. Also, the AC50 under setting [1] was 5.17 µM [falling, single point].

For the compound `O=[n+]1cc(-c2ccc(Cl)cc2)n([O-])c2c1CCCCC2`, the cell number change was determined as 4.34%.

In the case of `CCOc1ccc(Nc2nc(N)c([N+](=O)[O-])c(N3CCN(C)CC3)n2)cc1`, the cell number change stood at 36%. Also, under setting [2], the AC50 was 29.1 µM [rising, single point]. Moreover, the AC50 under setting [1] was 6.51 µM [falling, single point].

Regarding `COc1ccc(CCC(=O)Nc2ccc3c(c2)OCO3)cc1OC`, the cell number change was -3.91%. The AC50 under setting [1] was 6.51 µM [rising, single point].

As to `COCCNC(=O)c1cccc(OC2CCN(Cc3ccccc3OC(F)F)CC2)c1`, the cell number change was determined as 4.23%. Also, the AC50 under setting [1] is 1.03 µM [rising, full curve, poor fit].

Take `COc1cccc(NC(=O)CN(C)C(=O)c2ccc3c(c2)C(=O)N(CCC(C)C)C3=O)c1`: the cell number change is -1.81%. The AC50 under setting [1] is 0.731 µM [rising, full curve, poor fit].

On to `COc1cccc(CN2CCN(C(=O)c3ccc(-c4ccccc4)cc3)CC2)c1`, for which the cell number change was determined as 36.8%. Besides, the AC50 under setting [2] is 4.11 µM [rising, full curve]. Further, the AC50 under setting [1] is 4.11 µM [rising, single point].

On to `COc1ccc(C(=O)N2CCOC2CNC(=O)C(=O)NCc2ccc3c(c2)OCO3)cc1` (configuration not stated), for which the cell number change is 22.2%. For the same compound, under setting [2], the AC50 was 0.58 µM [rising, full curve, poor fit]. Further, the AC50 under setting [1] was 14.6 µM [rising, partial curve].

`O=S(=O)(Cc1ccccc1)N1CCN(Cc2ccc(F)cc2Cl)CC1`: the cell number change came out at 8.8%.

With `Cc1[nH]n(-c2ccc(Cl)cc2)c(=O)c1C=NC12CN3CN(CN(C3)C1)C2`, the cell number change is -61.4%. Under setting [2], the AC50 was 3.66 µM [falling, full curve]. Further, the AC50 under setting [1] was 5.17 µM [falling, partial curve].

Regarding `COc1ccc(OCc2cc(C(=O)NCCc3ccccc3)no2)c(Cl)c1`, the cell number change is 26.9%.

With `COC(=O)C1=CN(Cc2ccc(OC)cc2)C=C(C(=O)OC)C1c1ccc(O)c(OC)c1`, the cell number change is -24.9%.

Consider `O=C(N/N=C1\CCCc2ccccc21)c1ccccc1Cl`, for which the cell number change was found to be 30.8%. Besides, under setting [2], the AC50 is 0.517 µM [rising, full curve, poor fit]. In addition, the AC50 under setting [1] is 16.4 µM [rising, partial curve, poor fit].

With `CCCOc1cccc(C(=O)Nc2nnn(CCC)n2)c1`, the cell number change is -10.5%. The AC50 under setting [1] was 0.146 µM [falling, full curve, poor fit].

Regarding `O=C(Cc1ccccc1)Nc1ccc(C(=O)NCc2ccccc2)cc1`, the cell number change was 46.6%. Further, the AC50 under setting [2] is 29.1 µM [rising, single point].

Turning to `Cc1ccc2nc3cc([N+](=O)[O-])cc([N+](=O)[O-])c3cc2c1`, the cell number change was -12%. Also, the AC50 under setting [1] is 29.1 µM [falling, single point].

For the compound `CCOc1ccc(C(=O)Nc2cccc3nsnc23)cc1[N+](=O)[O-]`, the cell number change is -5.11%.

Consider `CN(C)CCC(=O)NCC1OCCc2ccccc21` (configuration not stated), for which the cell number change is 9.15%. Besides, the AC50 under setting [1] was 6.51 µM [falling, partial curve, poor fit].

For `COc1ccc(N2C(=O)CC(N(CCc3ccccc3)C(=O)c3ccccc3)C2=O)cc1` (configuration not stated), the cell number change was -14.5%.

On to `COc1cccc(NC(=O)Cn2cnc3c(oc4nc5c(cc43)CCCC5)c2=O)c1`, for which the cell number change came out at 33.4%. In addition, the half-maximal activity concentration (AC50) under setting [2] is 29.1 µM [rising, single point].

In the case of `O=C(Nc1cccnc1)C1CC(=O)N(c2ccc(F)cc2)C1` (configuration not stated), the cell number change was found to be 10.5%. In addition, the AC50 under setting [2] is 0.13 µM [falling, partial curve, poor fit].

`O=c1c(Cl)c(O)c2cccc3c4ccccc4n1c23`: the cell number change turned out to be 20.1%. The AC50 under setting [1] is 0.13 µM [rising, full curve, poor fit].

With `Cc1ccc(NC2CCCN(C(=O)c3cccc4nccnc34)C2)cc1C` (configuration not stated), the cell number change is 26.2%.

As to `O=C1/C(=N\O)Cc2ccccc21`, the AC50 is 0.092 µM [rising, full curve, poor fit] under setting [2] and 0.13 µM [rising, full curve] under setting [1].

Take `Cc1ccc(CSCCNC(=O)c2ccccc2)cc1`: the cell number change stood at 39.8%. In addition, the AC50 under setting [2] is 3.66 µM [rising, full curve, poor fit]. Under setting [1], the AC50 is 4.11 µM [rising, full curve].

With `O=C(COC(=O)C1CCN(c2ccc(C(F)(F)F)cn2)CC1)Nc1cc(F)ccc1F`, the cell number change was -9.94%. In addition, the AC50 under setting [1] was 11.6 µM [rising, partial curve, poor fit].

Take `C/C=C\C(=O)Nc1cccc(C2=NOC3(C2)C[C@@H](C(N)=O)N(C(=O)COc2ccc(Cl)cc2)C3)c1` (some centres not stated): the cell number change was 13.7%. Moreover, the AC50 under setting [1] is 0.58 µM [rising, full curve, poor fit].

As to `OCc1nnn(-c2ccccc2)c1CO`, the cell number change was -41.5%. Moreover, the AC50 under setting [2] was 29.1 µM [falling, single point]. In addition, under setting [1], the AC50 is 29.1 µM [falling, single point].

On to `COc1ccc(NC(=O)[C@@H](NC(N)=O)C(C)C)cc1Cl`, for which the cell number change was -9.49%. In addition, the AC50 under setting [1] is 9.2 µM [falling, partial curve, poor fit].

`COCCCNC(=O)c1ccc(CS(=O)(=O)c2ccc(OC)cc2)o1`: under setting [1], the AC50 is 6.51 µM [rising, single point].

`CC(C)(C)OC(=O)N[C@@H](Cc1c[nH]c2ccccc12)c1nnc(SCC(N)=O)o1`: the cell number change came out at 0.762%. The AC50 under setting [2] is 6.51 µM [falling, single point]. Also, under setting [1], the AC50 is 5.17 µM [falling, partial curve, poor fit].

As to `COc1ccc(N(C(=O)c2snc(C(N)=O)c2N)C(C(=O)NC2CCCC2)c2ccco2)cc1` (configuration not stated), the cell number change stood at 20.5%.

As to `Cc1ccc2c(SCC(=O)NCc3ccco3)nc(-c3ccc(F)cc3)nc2c1`, the cell number change is 19%. The AC50 under setting [2] was 0.231 µM [rising, full curve, poor fit].

As to `CCCCCc1nnc(N)s1`, the cell number change is -63.3%. Further, under setting [2], the half-maximal activity concentration (AC50) was 20.6 µM [falling, partial curve, poor fit].
